# Results: patent US10513547B2, “Peptides and combination of peptides and scaffolds thereof for use in immunotherapy against colorectal carcinoma (CRC) and other cancers” (Immatics Biotechnologies GmbH, priority 2015, dated 2019)
# System: HLA molecules from shock-frozen tissue samples (CRC, other tumors, normal tissues)
# Test: Identification and label-free relative LC-MS quantitation of HLA-presented tumor associated peptides (presentation profiles, XPRESIDENT)
# Design: species or system human; key to Peptide Presentation (presentation score): very highly over-presented on tumors compared to a panel of normal tissues (+++); highly over-presented on tumors compared to a panel of normal tissues (++); over-presented on tumors compared to a panel of normal tissues (+)
# Settings: additional tumor types: over-presented on more than 5% of measured tumor samples, or presented on more than 5% with ratio of geometric means tumor vs normal larger than 3
row,Substance,Other relevant organs/diseases
1,168 (GLIRFPLMTI; listed as Homo sapiens) [compound 168],"Lung, Kidney, Liver"
2,244 (SLHFLILYV; listed as Homo sapiens) [compound 244],"Lung, Kidney, Brain, Liver, Melanoma"
3,155 (RLLGEEVVRV; listed as Homo sapiens) [compound 155],Esophagus
4,258 (LLYEGKLTL; listed as Homo sapiens) [compound 258],"Breast, Ovary"
5,197 (SLFGQDVKAV; listed as Homo sapiens) [compound 197],"MCC, Esophagus"
6,154 (KLPSETIFVGC; listed as Homo sapiens) [compound 154],"Lung, Liver, Leukocytes, Ovary, Esophagus"
7,3 (RLIPDTLYSV; listed as Homo sapiens) [compound 3],"Lung, Pancreas, Breast, Ovary, Esophagus"
8,38 (SLAPTPVSA; listed as Homo sapiens) [compound 38],Pancreas
9,175 (TLLGGKEAQALGV; listed as Homo sapiens) [compound 175],Ovary
10,248 (ALYGDIDAV; listed as Homo sapiens) [compound 248],"Lung, Brain, Pancreas, Esophagus"
11,134 (GVAGGSILKGV; listed as Homo sapiens) [compound 134],"Lung, Liver, Melanoma, Ovary, Esophagus"
12,209 (KLQDGLLHI; listed as Homo sapiens) [compound 209],"Kidney, Brain, Liver, Pancreas"
13,65 (FGAPGIISA; listed as Homo sapiens) [compound 65],"Stomach, Esophagus"
14,19 (RLYTKLLNEA; listed as Homo sapiens) [compound 19],"Brain, Esophagus"
15,26 (GLASKENFSNVSL; listed as Homo sapiens) [compound 26],"Lung, Liver, Esophagus"
16,136 (KLFDIFSQQV; listed as Homo sapiens) [compound 136],Liver
17,220 (KMDPVAYRV; listed as Homo sapiens) [compound 220],"Liver, Prostate"
18,254 (VLFQEALWHV; listed as Homo sapiens) [compound 254],Liver
19,18 (FLSSLKGGLL; listed as Homo sapiens) [compound 18],Ovary
20,16 (VLVDQSWVL; listed as Homo sapiens) [compound 16],Ovary
21,243 (TLMDMRLSQV; listed as Homo sapiens) [compound 243],"Lung, Kidney, Brain, Liver, Prostate, Ovary"
22,61 (KLLKLFQGV; listed as Homo sapiens) [compound 61],Kidney
23,217 (KLLDTMVDTFL; listed as Homo sapiens) [compound 217],"Lung, Kidney, Brain, Liver, Ovary, Esophagus"
24,264 (RLLDVLAPLV; listed as Homo sapiens) [compound 264],"Kidney, Liver"
25,211 (SLFGKKYIL; listed as Homo sapiens) [compound 211],Kidney
26,108 (SLAELVPGVGGI; listed as Homo sapiens) [compound 108],"Kidney, Brain, Liver, Ovary"
27,55 (QIITSVVSV; listed as Homo sapiens) [compound 55],Pancreas

# Same assay, conditions: all samples with detectable presentation, all tumor types
row,Substance,number of cancer tissues with detectable presentation of the peptide
1,SEQ ID NO.: 152 (KLLAVIHEL; listed as Homo sapiens),34

# Same assay, conditions: normal tissue panel as in FIG. 1A-C
row,Substance,number of normal tissues with detectable presentation of the peptide
1,SEQ ID NO.: 152 (KLLAVIHEL; listed as Homo sapiens),2

# Same assay, conditions: over-presentation on more than 5% of the measured tumor samples, or presentation on more than 5% of the measured tumor samples with ratio of geometric means tumor vs normal tissues larger than 3
row,Substance,Additional Entities (additional tumor types on which the peptide was found)
1,168 (GLIRFPLMTI; listed as Homo sapiens) [compound 168],"CLL, Melanoma, Urinary bladder cancer, Uterine Cancer, AML"
2,155 (RLLGEEVVRV; listed as Homo sapiens) [compound 155],Melanoma
3,154 (KLPSETIFVGC; listed as Homo sapiens) [compound 154],"Melanoma, Uterine Cancer, AML"
4,3 (RLIPDTLYSV; listed as Homo sapiens) [compound 3],"Melanoma, Urinary bladder cancer, Uterine Cancer, Gallbladder Cancer, Bile Duct Cancer"
5,38 (SLAPTPVSA; listed as Homo sapiens) [compound 38],Uterine Cancer
6,134 (GVAGGSILKGV; listed as Homo sapiens) [compound 134],"CLL, BRCA, Urinary bladder cancer, Gallbladder Cancer, Bile Duct Cancer, NHL"
7,19 (RLYTKLLNEA; listed as Homo sapiens) [compound 19],"Melanoma, Urinary bladder cancer, Uterine Cancer, Gallbladder Cancer, Bile Duct Cancer"
8,26 (GLASKENFSNVSL; listed as Homo sapiens) [compound 26],"Urinary bladder cancer, Uterine Cancer, Gallbladder Cancer, Bile Duct Cancer"
9,136 (KLFDIFSQQV; listed as Homo sapiens) [compound 136],"Urinary bladder cancer, Uterine Cancer, NHL"
10,18 (FLSSLKGGLL; listed as Homo sapiens) [compound 18],"Melanoma, Urinary bladder cancer, Uterine Cancer, AML"
11,16 (VLVDQSWVL; listed as Homo sapiens) [compound 16],"Esophageal Cancer, Urinary bladder cancer"
12,61 (KLLKLFQGV; listed as Homo sapiens) [compound 61],"Melanoma, AML"
13,145 (LLLEVVKQV; listed as Homo sapiens) [compound 145],"Gallbladder Cancer, Bile Duct Cancer, NHL"
14,2 (ALLPRYFFL; listed as Homo sapiens) [compound 2],Uterine Cancer
15,108 (SLAELVPGVGGI; listed as Homo sapiens) [compound 108],BRCA
16,55 (QIITSVVSV; listed as Homo sapiens) [compound 55],"CLL, Urinary bladder cancer, Uterine Cancer, AML"

# Same assay, conditions: over-presentation on tumors compared to a panel of normal tissues
row,Substance,Peptide Presentation (presentation score)
1,168 (GLIRFPLMTI; listed as Homo sapiens) [compound 168],++
2,244 (SLHFLILYV; listed as Homo sapiens) [compound 244],+
3,155 (RLLGEEVVRV; listed as Homo sapiens) [compound 155],++
4,154 (KLPSETIFVGC; listed as Homo sapiens) [compound 154],+
5,3 (RLIPDTLYSV; listed as Homo sapiens) [compound 3],+++
6,38 (SLAPTPVSA; listed as Homo sapiens) [compound 38],+++
7,134 (GVAGGSILKGV; listed as Homo sapiens) [compound 134],+++
8,209 (KLQDGLLHI; listed as Homo sapiens) [compound 209],+++
9,65 (FGAPGIISA; listed as Homo sapiens) [compound 65],+++
10,51 (QVWEIQHTV; listed as Homo sapiens) [compound 51],++
11,19 (RLYTKLLNEA; listed as Homo sapiens) [compound 19],+++
12,26 (GLASKENFSNVSL; listed as Homo sapiens) [compound 26],+++
13,136 (KLFDIFSQQV; listed as Homo sapiens) [compound 136],+++
14,220 (KMDPVAYRV; listed as Homo sapiens) [compound 220],+
15,254 (VLFQEALWHV; listed as Homo sapiens) [compound 254],++
16,18 (FLSSLKGGLL; listed as Homo sapiens) [compound 18],+++
17,16 (VLVDQSWVL; listed as Homo sapiens) [compound 16],+++
18,243 (TLMDMRLSQV; listed as Homo sapiens) [compound 243],+
19,61 (KLLKLFQGV; listed as Homo sapiens) [compound 61],+++
20,145 (LLLEVVKQV; listed as Homo sapiens) [compound 145],+++
21,217 (KLLDTMVDTFL; listed as Homo sapiens) [compound 217],++
22,2 (ALLPRYFFL; listed as Homo sapiens) [compound 2],+++
23,211 (SLFGKKYIL; listed as Homo sapiens) [compound 211],+++
